{"source": "patent US11798661B2", "about": "“Methods for lowering blood pressure with a dihydropyridine-type calcium channel blocker pharmaceutical composition” (A[…] Limited, priority 2018, dated 2023)", "origin": "cited, not measured here", "conditions": "co-administration with grapefruit juice"}
{"smiles": "COC(=O)C1=C(C)NC(C)=C(C(=O)OC)C1c1ccccc1[N+](=O)[O-]", "note": "[nifedipine, 3,5-dimethyl 2,6-dimethyl-4-(2-nitrophenyl)-1,4-dihydropyridine-3,5-dicarboxylate]", "values": [{"measurement": "change in area under the curve of blood concentration versus time (AUC)", "value": "approximately a doubling"}]}
